In doi:10.1101/2025.08.09.669489:
Results are given in words; binding and its absence hold for the method and conditions named. In cells and extracts the contact can be indirect. Some entries that bind do so weakly or less than the wild type.

Amino acid sequences for entries named in this document (tags omitted).
UniProt Q9HC77: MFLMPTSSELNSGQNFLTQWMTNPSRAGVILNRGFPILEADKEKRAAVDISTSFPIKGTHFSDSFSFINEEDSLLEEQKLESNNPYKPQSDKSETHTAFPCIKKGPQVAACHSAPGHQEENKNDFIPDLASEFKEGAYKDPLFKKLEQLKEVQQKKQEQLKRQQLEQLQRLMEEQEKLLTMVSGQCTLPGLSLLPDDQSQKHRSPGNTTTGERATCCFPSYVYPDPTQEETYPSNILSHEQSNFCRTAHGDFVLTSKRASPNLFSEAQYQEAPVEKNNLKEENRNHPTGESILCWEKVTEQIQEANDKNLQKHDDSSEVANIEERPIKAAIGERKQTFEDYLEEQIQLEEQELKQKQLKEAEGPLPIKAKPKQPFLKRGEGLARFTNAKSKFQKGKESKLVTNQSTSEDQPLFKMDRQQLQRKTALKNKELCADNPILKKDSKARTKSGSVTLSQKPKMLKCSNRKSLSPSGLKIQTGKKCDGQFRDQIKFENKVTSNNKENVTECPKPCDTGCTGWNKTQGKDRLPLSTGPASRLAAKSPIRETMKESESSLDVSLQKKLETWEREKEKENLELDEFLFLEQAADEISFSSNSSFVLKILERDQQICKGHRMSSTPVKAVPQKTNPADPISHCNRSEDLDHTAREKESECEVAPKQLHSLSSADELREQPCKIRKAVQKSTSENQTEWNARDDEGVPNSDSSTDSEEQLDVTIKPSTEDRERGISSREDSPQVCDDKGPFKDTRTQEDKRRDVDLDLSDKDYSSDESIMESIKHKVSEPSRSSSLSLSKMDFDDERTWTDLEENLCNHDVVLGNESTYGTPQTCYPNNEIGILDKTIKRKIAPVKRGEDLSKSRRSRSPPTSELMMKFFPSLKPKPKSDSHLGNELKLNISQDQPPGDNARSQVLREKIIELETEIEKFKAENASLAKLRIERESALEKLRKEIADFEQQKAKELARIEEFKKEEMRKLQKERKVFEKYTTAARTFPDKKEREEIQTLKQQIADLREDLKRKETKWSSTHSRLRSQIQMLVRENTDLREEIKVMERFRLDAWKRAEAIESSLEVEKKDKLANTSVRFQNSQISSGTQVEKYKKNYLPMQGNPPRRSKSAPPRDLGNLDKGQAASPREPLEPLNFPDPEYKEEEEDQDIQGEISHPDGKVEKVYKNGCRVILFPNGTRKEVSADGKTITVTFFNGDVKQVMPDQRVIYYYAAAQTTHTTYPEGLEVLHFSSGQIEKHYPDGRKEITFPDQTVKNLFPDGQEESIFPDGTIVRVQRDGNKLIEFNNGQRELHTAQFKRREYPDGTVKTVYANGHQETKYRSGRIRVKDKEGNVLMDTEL
UniProt Q99816: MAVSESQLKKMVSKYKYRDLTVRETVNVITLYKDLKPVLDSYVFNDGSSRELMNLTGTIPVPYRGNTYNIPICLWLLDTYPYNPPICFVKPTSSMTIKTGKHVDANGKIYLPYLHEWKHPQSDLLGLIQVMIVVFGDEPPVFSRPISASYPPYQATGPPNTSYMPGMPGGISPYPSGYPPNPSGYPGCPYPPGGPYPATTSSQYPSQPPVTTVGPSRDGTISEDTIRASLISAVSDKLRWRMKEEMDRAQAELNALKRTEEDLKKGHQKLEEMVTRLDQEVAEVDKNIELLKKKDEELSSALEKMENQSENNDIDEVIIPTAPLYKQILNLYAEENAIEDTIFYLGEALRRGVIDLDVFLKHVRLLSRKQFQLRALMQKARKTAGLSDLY

Biological target: GFP-CPAP (doxycycline-inducible) (UniProt Q9HC77)
Experiment: co-IP

TSG101 (ESCRT-I protein), endogenous (from UniProt Q99816 1-390)
binding: binds
